The list is a part of this screen's results and no random one: it gathers tests that were run many times, whatever their T/C, doses with no T/C, and many T/C values between a quarter and a half above the control. Other doses and runs of a compound stand elsewhere. T/C: endpoint of the treated group in % of that of the vehicle group. Some entries give survivors of the animals treated and no T/C: the source files T/C as zero there, which appears to mark a toxic dose or a test without result, not a measured value. Some survivor counts are full or nearly so, which does not show that the dose was tolerated: survival well below the control is almost never listed, so the zero probably covers shortened survival too. Survivors were counted at the toxicity check, usually on the fifth day, unless a day is given; later deaths do not show. Schedule codes are those of the source, taken here to give the interval after Q, in days (D) or hours (H), and the number of doses after X. Some doses were run more than once; the results are listed from low to high. Where survival is the endpoint, the PubChem record calls one and a half times the control and up active, and a quarter to a half above the control has no call in these data; cut-offs in other NCI protocols can differ. Additions like (4×) count equal records among those shown.
Tested on: CD2F1 mice, L1210 leukemia ip, survival T/C
Test: NCI In Vivo Anticancer Drug Screen. Data for tumor model L1210 Leukemia (intraperitoneal) in CD2F1 (CDF1) mice
Conditions: higher T/C = longer survival
Method in brief: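 Activity against a transplanted murine tumor was judged by comparing the compound group with a vehicle group. The outcome in the treated animals was divided by that in the controls.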

[1] = T/C endpoint: mean survival time, dose: 200.0 mg/kg/injection, schedule: Q01DX009 (ip), vehicle: saline with Tween-80
[2] = T/C endpoint: mean survival time, dose: 200.0 mg/kg/injection, schedule: Q04DX003 (ip), vehicle: saline with Tween-80
[3] = T/C endpoint: mean survival time, dose: 400.0 mg/kg/injection, schedule: Q01DX009 (ip), vehicle: saline with Tween-80
[4] = T/C endpoint: mean survival time, dose: 400.0 mg/kg/injection, schedule: Q04DX003 (ip), vehicle: saline with Tween-80
[5] = T/C endpoint: mean survival time, dose: 100.0 mg/kg/injection, schedule: Q04DX003 (ip), vehicle: saline with Tween-80
[6] = T/C endpoint: median survival time, dose: 400.0 mg/kg/injection, schedule: Q01DX009 (ip), vehicle: saline

In the case of `CCOC(=N)c1cn(C2OC(CO)C(O)C2O)c2ncnc(N)c12` (centres undefined), the T/C (T/C endpoint: mean survival time, dose: 0.12 mg/kg/injection, schedule: Q01DX009 (ip), vehicle: saline) is reported as 127 % of control, the T/C (T/C endpoint: mean survival time, dose: 0.18 mg/kg/injection, schedule: Q01DX009 (ip), vehicle: saline) is reported as 128 % of control and the T/C (T/C endpoint: mean survival time, dose: 0.27 mg/kg/injection, schedule: Q01DX009 (ip), vehicle: saline) is reported as 138 % of control. The T/C (T/C endpoint: mean survival time, dose: 0.4 mg/kg/injection, schedule: Q01DX009 (ip), vehicle: saline) was 138 % of control, the T/C (T/C endpoint: mean survival time, dose: 5.0 mg/kg/injection, schedule: Q01DX001 (ip), vehicle: saline) was 136 % of control and the T/C (T/C endpoint: mean survival time, dose: 10.0 mg/kg/injection, schedule: Q01DX001 (ip), vehicle: saline) was 143 % of control. The survivor count (T/C endpoint: mean survival time, dose: 20.0 mg/kg/injection, schedule: Q01DX001 (ip), vehicle: saline) was 2 of 6, the survivor count (T/C endpoint: mean survival time, dose: 40.0 mg/kg/injection, schedule: Q01DX001 (ip), vehicle: saline) was 0 of 6 and the survivor count (T/C endpoint: mean survival time, dose: 75.0 mg/kg/injection, schedule: Q01DX001 (ip), vehicle: saline) was 0 of 6. For the same molecule, the survivor count (T/C endpoint: mean survival time, dose: 80.0 mg/kg/injection, schedule: Q01DX001 (ip), vehicle: saline) was 0 of 6, the survivor count (T/C endpoint: mean survival time, dose: 150.0 mg/kg/injection, schedule: Q01DX001 (ip), vehicle: saline) was 0 of 6 and the survivor count (T/C endpoint: mean survival time, dose: 300.0 mg/kg/injection, schedule: Q01DX001 (ip), vehicle: saline) was 0 of 6.

`CN(C)CCCN1c2ccccc2C(C)(C)c2ccccc21` was tested, and the survivor count (T/C endpoint: mean survival time, dose: 100.0 mg/kg/injection, schedule: Q01DX009 (ip), vehicle: saline with Tween-80) was 2 of 6, the survivor count [1] was 0 of 6 and the survivor count [2] was 6 of 6. The survivor count [3] was 0 of 6.

`Cc1ccc(C(C)(C)C[P+](C)(c2ccccc2)c2ccccc2)cc1` was tested, and the survivor count (T/C endpoint: mean survival time, dose: 200.0 mg/kg/injection, schedule: Q01DX009 (ip), vehicle: Klucel (hydroxypropylcellulose) (HPC)) was 3 of 6 and the survivor count (T/C endpoint: mean survival time, dose: 400.0 mg/kg/injection, schedule: Q01DX009 (ip), vehicle: Klucel (hydroxypropylcellulose) (HPC)) was 6 of 6.

In the case of `O=C(CNC(=O)Nc1cccc(C(F)(F)F)c1)NNC(=O)Nc1ccc(Cl)c([N+](=O)[O-])c1`, the survivor count [3] is reported as 2 of 6.

`COc1cc(Br)c(CCNC(=O)Cc2cc(OC)c(OC)cc2Br)cc1OC` was tested, and the survivor count [4] was 6 of 6.

With `CCOC(=O)C1(c2ccccc2)C(=O)Oc2ccccc21` (centres undefined) the survivor count [1] was 6 of 6.

With `CCCC(=O)OCc1cc(=O)n(C)c2c3c4c(cc12)c(C)cc(=O)n4CO3` the T/C (T/C endpoint: mean survival time, dose: 50.0 mg/kg/injection, schedule: Q01DX009 (ip), vehicle: Klucel (hydroxypropylcellulose) (HPC)) was 145 % of control and the survivor count (T/C endpoint: mean survival time, dose: 100.0 mg/kg/injection, schedule: Q01DX009 (ip), vehicle: Klucel (hydroxypropylcellulose) (HPC)) was 6 of 6.

In the case of `NC/C(=N\O)c1ccc(Cl)cc1`, the survivor count (T/C endpoint: mean survival time, dose: 400.0 mg/kg/injection, schedule: Q01DX001 (ip), vehicle: saline) is reported as 2 of 6.

With `CCCCCCCCCCCC[N+]1(C)CCC[N+](C)(CCCCCCCCCCCC)CC1` (centres undefined) the survivor count (T/C endpoint: mean survival time, dose: 150.0 mg/kg/injection, schedule: Q01DX001 (ip), vehicle: saline with Tween-80) was 0 of 6 and the survivor count (T/C endpoint: mean survival time, dose: 300.0 mg/kg/injection, schedule: Q01DX001 (ip), vehicle: saline with Tween-80) was 0 of 6.

For `CN(C)N=Nc1ccc(C#N)cc1C(N)=O`, the T/C (T/C endpoint: mean survival time, dose: 37.5 mg/kg/injection, schedule: Q01DX009 (ip), vehicle: Klucel (hydroxypropylcellulose) (HPC)) was 128 % of control, the T/C (T/C endpoint: mean survival time, dose: 75.0 mg/kg/injection, schedule: Q01DX009 (ip), vehicle: Klucel (hydroxypropylcellulose) (HPC)) was 125 and 133 % of control and the survivor count (T/C endpoint: mean survival time, dose: 150.0 mg/kg/injection, schedule: Q01DX009 (ip), vehicle: Klucel (hydroxypropylcellulose) (HPC)) was 5 of 6. For the same molecule, the survivor count (T/C endpoint: mean survival time, dose: 300.0 mg/kg/injection, schedule: Q01DX009 (ip), vehicle: Klucel (hydroxypropylcellulose) (HPC)) was 0 of 6.

With `CNCC(O)c1ccc(O)c(O)c1.[Pt].c1ccc([PH+](c2ccccc2)c2ccccc2)cc1.c1ccc([PH+](c2ccccc2)c2ccccc2)cc1` the survivor count (T/C endpoint: median survival time, dose: 200.0 mg/kg/injection, schedule: Q04DX003 (ip), vehicle: saline with Tween-80) was 6 of 6 and the survivor count (T/C endpoint: median survival time, dose: 400.0 mg/kg/injection, schedule: Q04DX003 (ip), vehicle: saline with Tween-80) was 5 of 6.

For `O=C(NNC(=O)OCC(Cl)(Cl)Cl)OCC(Cl)(Cl)Cl`, the survivor count [2] was 1 of 6 and the survivor count [4] was 2 of 6.

For `NNC(N)=S`, the survivor count [5] was 0 of 6, the survivor count [2] was 0 of 6 and the survivor count [4] was 0 of 6.

`CC1=NN(c2cccc(S(=O)(=O)O)c2)C(=O)C1N=Nc1cc(Cl)cc(S(=O)(=O)O)c1O.CC1=NN(c2cccc(S(=O)(=O)O)c2)C(=O)C1N=Nc1cc(Cl)cc(S(=O)(=O)O)c1O.[Cr]` (centres undefined) was tested, and the survivor count (T/C endpoint: median survival time, dose: 800.0 mg/kg/injection, schedule: Q01DX009 (ip), vehicle: saline) was 0 of 6.

In the case of `C(=NCCN1CCOCC1)=NC1CCCCC1`, the survivor count (T/C endpoint: mean survival time, dose: 25.0 mg/kg/injection, schedule: Q04DX003 (ip), vehicle: saline with Tween-80) is reported as 0 of 6.

In the case of `Cc1cc2oc(=O)cc(N3CCOCC3)c2c(=O)o1`, the survivor count [4] is reported as 4 of 6.

`NCCOC(=O)/C=C/c1ccccc1` was tested, and the survivor count (T/C endpoint: mean survival time, dose: 400.0 mg/kg/injection, schedule: Q01DX009 (ip), vehicle: saline) was 3 of 6.

In the case of `[CH3][Sn]([CH3])([Br])[CH2]CC[CH2][Sn]([CH3])([CH3])[Br]`, the survivor count (T/C endpoint: mean survival time, dose: 0.39 mg/kg/injection, schedule: Q01DX009 (ip), vehicle: saline) is reported as 0 of 3, the survivor count (T/C endpoint: mean survival time, dose: 0.78 mg/kg/injection, schedule: Q01DX009 (ip), vehicle: saline) is reported as 0 of 3 and the survivor count (T/C endpoint: mean survival time, dose: 1.56 mg/kg/injection, schedule: Q01DX009 (ip), vehicle: saline) is reported as 0 of 3. The survivor count (T/C endpoint: mean survival time, dose: 3.12 mg/kg/injection, schedule: Q01DX009 (ip), vehicle: saline) was 0 of 3, the survivor count (T/C endpoint: mean survival time, dose: 6.25 mg/kg/injection, schedule: Q01DX009 (ip), vehicle: saline) was 0 of 3 and the survivor count (T/C endpoint: mean survival time, dose: 12.5 mg/kg/injection, schedule: Q01DX009 (ip), vehicle: saline) was 0 of 3. For the same molecule, the survivor count (T/C endpoint: mean survival time, dose: 25.0 mg/kg/injection, schedule: Q01DX009 (ip), vehicle: saline) was 0 of 3.

With `Nc1ccc(CCCCc2ccccc2)cc1` the survivor count (T/C endpoint: mean survival time, dose: 200.0 mg/kg/injection, schedule: Q04DX003 (ip), vehicle: acetone) was 4 of 6 and the survivor count (T/C endpoint: mean survival time, dose: 400.0 mg/kg/injection, schedule: Q04DX003 (ip), vehicle: acetone) was 0 of 6.

In the case of `N#C[Se]CC[Se]C#N`, the survivor count (T/C endpoint: mean survival time, dose: 100.0 mg/kg/injection, schedule: Q01DX001 (ip), vehicle: saline with Tween-80) is reported as 0 of 6, the survivor count (T/C endpoint: mean survival time, dose: 200.0 mg/kg/injection, schedule: Q01DX001 (ip), vehicle: saline with Tween-80) is reported as 0 of 6 and the survivor count (T/C endpoint: mean survival time, dose: 400.0 mg/kg/injection, schedule: Q01DX001 (ip), vehicle: saline with Tween-80) is reported as 0 of 6.

`CN(CCN(C)C(=O)CCOS(C)(=O)=O)C(=O)CCOS(C)(=O)=O` was tested, and the T/C (T/C endpoint: median survival time, dose: 25.0 mg/kg/injection, schedule: Q01DX009 (ip), vehicle: saline) was 121 and 135 % of control (2×), the T/C (T/C endpoint: median survival time, dose: 50.0 mg/kg/injection, schedule: Q01DX009 (ip), vehicle: saline) was 150, 170, 174 % of control and the T/C (T/C endpoint: median survival time, dose: 100.0 mg/kg/injection, schedule: Q01DX009 (ip), vehicle: saline) was 210, 250, 256 % of control. The T/C (T/C endpoint: median survival time, dose: 200.0 mg/kg/injection, schedule: Q01DX009 (ip), vehicle: saline) was 102, 150, 171 % of control, the T/C [6] was 102 % of control and the survivor count [6] was 9 of 10 and 10 of 10.

For `CCN(CC)CC(=O)Nc1c(C)cccc1C`, the survivor count [2] was 4 of 6 and the survivor count [4] was 0 of 6.

For `CNc1ccc(O)cc1`, the survivor count [5] was 0 of 6, the survivor count [2] was 0 of 6 and the survivor count [4] was 0 of 6.

— PubChem BioAssay AID256 (DTP/NCI, 2004)
